Measurements as given in patent US20240018229A1 (published 2024).
No constants are given. Whether binding was seen depends on the method and setting. Some results given as binding are weak or reduced against the parent protein; the word gives no strength. Blank lines part the entries; values can stand above or below the binder they belong to.

Protein sequences, listed by entry. Tags and fused reporters are not part of them. Residues count along the entry.
UniProt P02769, residues 25-607: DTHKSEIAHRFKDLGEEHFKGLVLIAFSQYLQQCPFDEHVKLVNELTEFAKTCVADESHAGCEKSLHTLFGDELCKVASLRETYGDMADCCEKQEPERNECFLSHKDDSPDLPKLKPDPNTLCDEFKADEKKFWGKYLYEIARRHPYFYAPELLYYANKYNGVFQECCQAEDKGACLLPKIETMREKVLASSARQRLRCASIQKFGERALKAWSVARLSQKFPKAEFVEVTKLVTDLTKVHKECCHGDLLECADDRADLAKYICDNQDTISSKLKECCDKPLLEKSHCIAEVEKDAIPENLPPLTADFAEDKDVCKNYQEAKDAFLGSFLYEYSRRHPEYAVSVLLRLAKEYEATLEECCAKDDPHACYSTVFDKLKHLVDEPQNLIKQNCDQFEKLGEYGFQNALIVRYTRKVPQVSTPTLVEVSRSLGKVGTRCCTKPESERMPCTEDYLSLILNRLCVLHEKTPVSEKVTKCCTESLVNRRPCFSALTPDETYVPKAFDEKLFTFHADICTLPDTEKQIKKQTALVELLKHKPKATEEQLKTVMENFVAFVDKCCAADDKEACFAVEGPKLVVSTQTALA

Columns and labels:
[1] = target: T1, recombinant human CXCL1 protein (human, UniProt P09341 35-107); assay: immunoblot strip (the text does not name the assay); 10, 20 and 30 ng of CXCL1 of each species loaded
T1 construct: also called human chemokine CXCL1; soluble recombinant human CXCL1
T1 sequence: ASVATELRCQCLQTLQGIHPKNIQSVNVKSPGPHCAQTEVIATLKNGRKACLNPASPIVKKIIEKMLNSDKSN

[2] = target: T1, recombinant human CXCL1 protein; assay: immunoprecipitation followed by LC/MS-MS
[3] = target: T1, recombinant human CXCL1 protein; assay: absorbance at 450 nm against ng/mL, in PBS and in diluted human serum; neither the sheet nor the text says which partner is titrated
[4] = target: T1, recombinant human CXCL1 protein; assay: ELISA on coated human CXCL1 (30 ng per well), scFv detected with anti-Myc HRP and TMB
BSA (bovine) = BSA (bovine) (UniProt P02769); assay: ELISA on coated BSA, scFv detected with anti-Myc HRP and TMB
[5] = target: T1, recombinant human CXCL1 protein; assay: Western blot: CXCL1 on the membrane probed with purified HumBB2401scFv, then anti-c-Myc mouse antibody, HRP secondary, TMB
[6] = target: T1, recombinant human CXCL1 protein; assay: ELISA and Western blot, anti-Myc detection
[7] = target: T1, recombinant human CXCL1 protein; assay: Western blot: CXCL1 on the membrane probed with purified Hum2401scFv, then anti-c-Myc mouse antibody, HRP secondary, TMB

- binding [1]: binds
- binding [2]: binds
- binding [3]: binds
B1: anti-CXCL1 neutralizing monoclonal mouse antibody (HL2401) (antibody, V domains shown)
VH: EVKLVESGAELVKPGASVKLSCKASGYTFTSYYIYWVKQRPGQGLEWIGEIDPSHGGPTFNEKFKNKATLTVDKSSSTAYMQLSSLTSDDSAVYYCTRESGTGAMDYWGQGTTLTVSS
VL: DIVLTQSPASLAVSLGQRATISCKASQSVDYDGDSYVNWYQQKPGQPPKLLIYAASNLESRIPARFSGSGSGTDFTLNILPVEEDDGATYYCQQSSEDPWTFGGGTKLEIKR
notes: also called CXCL1 mAb (HL2401); mouse anti-human CXCL1 antibody HL2401

- binding [4]: binds
- binding (BSA (bovine)): no binding (tested: 10ug/mL)
- binding [5]: binds
- binding [6]: binds
B2: HumBB2401 scFv (humanized version 1) (scFv)
scFv: QVQLVQSGAEVKKPGASVKLSCKASGYTFTSYYIYWVRQAPGQGLEWIGEIDPSHGGPTFNEKFKNRATLTVDKSKSTAYMELSSLRSEDTAVYYCTRESGTGAMDYWGQGTLVTVSSGGGGSGGGGSGGGARGGGGSDIQMTQSPSSLSASVGDRATISCKASQSVDYDGDSYVNWYQQKPGKAPKLLIYAASNLESGIPSRFSGSGSGTDFTLTISSLQPEDFATYYCQQSSEDPWTFGQGTKVEIKR

- binding [4]: binds
- binding (BSA (bovine)): no binding (tested: 10ug/mL)
- binding [6]: binds
- binding [7]: binds
B3: HUM2401-ScFv_1 (humanized version 2) (scFv)
scFv: QVQLVESGGGLVQPGGSLRLSCKASGYTFTSYYIYWVRQAPGKGLEWIGEIDPSHGGPTFNEKFKNRFTISRDNSKNTLYLQMNSLRAEDTAVYYCTRESGTGAMDYWGQGTLVTVSSGGGGSGGGGSGGGARGGGGSDIQMTQSPSSLSASVGDRATISCKASQSVDYDGDSYVNWYQQKPGKAPKLLIYAASNLESGIPSRFSGSGSGTDFTLTISSLQPEDFATYYCQQSSEDPWTFGQGTKVEIKR
